Results as given in the supplement of paper PMC12823440, “Inhibitors supercharge kinase turnover through native proteolytic circuits” (Nature, 2025).
Some of the results follow. The calls rarely recur for the same compound in another form.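 In K562 cells expressing nanoluciferase-fused kinases, luminescence was recorded at 4 h intervals between 2 and 18 h, normalized as percent of control with DMSO at 100% and a positive control at 0%. A significant (2 sigma) signal drop marks a time point as decreased. The authors' rule for a hit is not shown and takes in more than the number of time points.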

Amino acid sequences for entries named in this document (tags omitted). A change or cut given only in a name is not applied to a line headed by its entry.
UniProt Q9UQB9: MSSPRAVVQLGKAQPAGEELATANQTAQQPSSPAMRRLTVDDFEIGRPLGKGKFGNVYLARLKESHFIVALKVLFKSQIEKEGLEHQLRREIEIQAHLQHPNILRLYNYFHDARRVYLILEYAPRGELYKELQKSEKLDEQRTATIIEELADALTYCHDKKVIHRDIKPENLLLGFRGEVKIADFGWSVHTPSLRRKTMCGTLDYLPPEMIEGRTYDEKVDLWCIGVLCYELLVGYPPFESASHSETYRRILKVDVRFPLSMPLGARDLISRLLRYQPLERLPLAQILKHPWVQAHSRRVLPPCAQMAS

These compounds were tested against AURKC (UniProt Q9UQB9) (assay: kinase-Nluc reporter destabilization hit call (1 = scored as downregulated) (binary); higher = compound decreases kinase abundance). Details: K562; 2-18 h.

kinase-Nluc reporter destabilization hit call, inactive:
Cc1c(-c2c(F)cc(C(N)=O)c3[nH]c4c(c23)CC[C@H](C(C)(C)O)C4)cccc1-n1c(=O)c2cccc(F)c2n(C)c1=O (2.5 µM) 0
c1cncc(CN2CCC(n3ncc4c(N5CCOCC5)nc(-c5ccc6[nH]ccc6c5)nc43)CC2)c1 (10 µM) 0
Cc1cccc(-c2[nH]ncc2-c2ccc(F)c(-c3cnn(CCO)c3)c2)n1 (10 µM) 0
COc1cc2nccc(Oc3ccc(NC(=O)NC4CC4)c(Cl)c3)c2cc1C(N)=O [Lenvatinib (mesylate)] (10 µM) 0
COc1cc2c(N3CCN(C(=O)Nc4ccc(OC(C)C)cc4)CC3)ncnc2cc1OCCCN1CCCCC1 [Tandutinib] (10 µM) 0
COc1cccc(OC)c1C(=O)OCc1cc(O)ccc1O[C@@H]1O[C@H](CO)[C@@H](O)[C@H](O)[C@H]1O [Curculigoside] (10 µM) 0
CNC(=O)c1ccc(C)c(-n2c(C)cc(OCc3ccc(F)cc3F)c(Br)c2=O)c1 (10 µM) 0
C=CC(=O)Nc1cc(C)ccc1Nc1nc(Nc2cc(OC)ncc2C)ncc1C(F)(F)F (10 µM) 0
CC(=O)NC1CC(n2cnc(NC(=O)Cc3ccc4ccccc4c3)c2)C1 (centres undefined) (10 µM) 0
